Measurements published in patent US12697317B2, “Dosages and uses of ornithine phenylacetate for treating hyperammonemia” (priority 2019, dated 2026).

Test: PK of PAA, ORN and PAGN in severe renal impairment vs normal renal function, Study 5
[1] = normal renal function, LOPA 15 g/24 hour IV
[2] = severely impaired renal function, LOPA 7 g/24 hours IV

For `NCCC[C@H](N)C(=O)O` [ORN, ornithine], the “mean dose normalized baseline corrected ORN AUC0-inf” value [1] was 64.1 µg·h/mL/g, the “mean dose normalized baseline corrected ORN Cmax” value [1] was 2.09 µg/mL/g and the “mean dose normalized baseline corrected ORN AUC0-inf” value [2] was 80.3 µg·h/mL/g. The “mean dose normalized baseline corrected ORN Cmax” value [2] was 2.28 µg/mL/g.
